{"source": "PubChem BioAssay AID504834", "about": "(National Center for Advancing Translational Sciences (NCATS), 2011)", "note": "Hit rate of the full screen: of about 320,000 compounds, about 22,000 (6.9%) were called active. The shares of active, inactive and inconclusive entries below differ from those in the screen. The call rests on the fitted dose curve; in most records, active means well fitted inhibition curve with a large enough effect; inconclusive means small, poorly fitted or top-dose-only effect, or another doubt; inactive means no such curve, though single readings can be large or run the other way. A potency beside an inconclusive call is a rough fit, not a confirmed value. On the % scale 0 is the no-effect control and ±100 the full control effect; potency means the concentration at half of the fitted maximal effect.", "data": [{"assay": "Primary qHTS for delayed death inhibitors of the malarial parasite plastid, 96 hour incubation", "details": "P. falciparum luciferase reporter growth; series mostly up to 28.7 µM", "outline": "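96 h incubation, 37 C, 5% CO2, of luciferase-reporter P. falciparum-infected RBCs (2% hematocrit, 0.05% parasitemia final) with test compounds; endpoint luminescence.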", "values": [{"smiles": "CCOc1ccccc1OCC(=O)NC1CCCCC1", "Potency": "inactive"}, {"smiles": "Cc1ccccc1CCNC(=O)C1CCC(=O)N(Cc2ccc(Cl)cc2)C1", "note": "(centres undefined)", "Potency": "inconclusive: 18.5 µM [inhibitor, single point]"}, {"smiles": "CC1C/C(=N/N=C2/NC(=O)CS2)CC(C)(C)C1", "note": "(centres undefined)", "Potency": "active: 10.4 µM"}, {"smiles": "CCOc1ccc(NC(=O)COC(=O)CCN2C(=O)C3CC=CCC3C2=O)cc1OCC", "note": "(centres undefined)", "Potency": "inconclusive: 18.5 µM [inhibitor, single point]"}, {"smiles": "CCc1ccc(N(CC(=O)Nc2sc3c(c2C(=O)OC)CCCC3)S(C)(=O)=O)cc1", "Potency": "inconclusive: 18.5 µM [inhibitor, single point]"}, {"smiles": "O=C(CCl)Nc1ccccc1Sc1ccc(Cl)cc1", "Potency": "inconclusive: 13.1 µM [inhibitor, partial curve, poor fit]"}, {"smiles": "O=C(CSc1c2c(nc3ccc(Cl)cc13)CCCC2)NCCCN1CCOCC1", "Potency": "inconclusive: 7.38 µM [inhibitor, partial curve, poor fit]"}, {"smiles": "CCCCn1c(SCC(=O)Nc2cc(C(F)(F)F)cc(C(F)(F)F)c2)nnc1C(CC)N(C)C", "note": "(centres undefined)", "Potency": "inconclusive: 5.86 µM [inhibitor, partial curve, poor fit]"}, {"smiles": "O=C1C(=O)N(CCN2CCOCC2)C(c2cccc(Cl)c2)/C1=C(/O)c1ccc2c(c1)OCO2", "note": "(centres undefined)", "Potency": "inconclusive: 18.5 µM [inhibitor, partial curve, poor fit]"}, {"smiles": "CCCCCCSc1ccc([C@H]2N[C@@](C)(C(=O)OC)[C@H]3C(=O)N(CC)C(=O)[C@@H]23)cc1", "Potency": "inconclusive: 18.5 µM [inhibitor, single point]"}, {"smiles": "COc1ccc(CCN2C(=O)CC(N3CCOCC3)C2=O)cc1OC", "note": "(centres undefined)", "Potency": "inconclusive: 6.57 µM [inhibitor, partial curve, poor fit]"}, {"smiles": "Cc1cc(S(=O)(=O)NCCN2CCOCC2)ccc1Cl", "Potency": "inactive"}, {"smiles": "Cc1noc(C)c1CSCC(=O)Nc1cc(Cl)ccc1N1CCCCC1", "Potency": "active: 6.57 µM"}, {"smiles": "Cc1nnc2ccc(N3CCN(c4cccc(C(F)(F)F)c4)CC3)nn12", "Potency": "inconclusive: 13.1 µM [inhibitor, partial curve, poor fit]"}, {"smiles": "CC(=O)c1cccc(NC(=O)c2ccc(S(=O)(=O)N3CCCC3)cc2)c1", "Potency": "inactive"}, {"smiles": "CCC(C)c1ccccc1N1CC(C(=O)NCCCn2nc(C)cc2C)CC1=O", "note": "(centres undefined)", "Potency": "inactive"}, {"smiles": "Oc1nc(-c2ccc(Br)cc2)n2ccncc12", "Potency": "inconclusive: 18.5 µM [inhibitor, single point]"}, {"smiles": "Cc1nc2ccc(S(=O)(=O)N(C)CC(=O)NCCc3ccccc3)cc2s1", "Potency": "inconclusive: 18.5 µM [inhibitor, single point]"}, {"smiles": "CCC(=O)Nc1nc2ccccc2n1Cc1ccccc1C", "Potency": "inconclusive: 18.5 µM [inhibitor, single point]"}, {"smiles": "COc1cccc(S(=O)(=O)N2CCN(C(=O)c3ccco3)CC2)c1", "Potency": "inconclusive: 1.31 µM [inhibitor, full curve]"}, {"smiles": "CCOC(=O)C(CC)Sc1nc2c(c(=O)[nH]c(=O)n2C)n1CCc1ccccc1", "note": "(centres undefined)", "Potency": "active: 11.7 µM"}, {"smiles": "COc1cccc(NC(=O)c2ccc(NC(=O)C3CC(=O)OC34CCCCC4)cc2)c1", "note": "(centres undefined)", "Potency": "inconclusive: 4.15 µM [inhibitor, single point]"}, {"smiles": "CCN1CCN(c2c(C=O)c(Cl)nc3ccc(OC)cc23)CC1", "Potency": "inconclusive: 18.5 µM [inhibitor, single point]"}, {"smiles": "Cn1c(=O)c2c(nc(SCC(=O)N3c4ccccc4CCc4ccccc43)n2C)n(C)c1=O", "Potency": "inconclusive: 10.4 µM [inhibitor, partial curve]"}, {"smiles": "COc1ccc(NC(=O)c2ccc(-c3nn(C)c(=O)c4ccccc34)cc2)cc1C(N)=O", "Potency": "inactive"}, {"smiles": "O=C(Nc1ccccc1-c1ccccc1)c1ccco1", "Potency": "active: 1.31 µM"}, {"smiles": "Cc1[nH]n(CCC#N)c(=O)c1CC(=O)N1CCN(c2ccccc2)CC1", "Potency": "inconclusive: 16.5 µM [inhibitor, single point]"}, {"smiles": "Cc1nc2cc(-c3ccsc3-n3c(C)ccc3C)[nH]n2c(=O)c1Cl", "Potency": "active: 14.7 µM"}, {"smiles": "Cc1c(C)c2ccc(OC(C)C(=O)N3C[C@H]4C[C@@H](C3)c3cccc(=O)n3C4)c(C)c2oc1=O", "note": "(some centres undefined)", "Potency": "inconclusive: 16.5 µM [inhibitor, partial curve, poor fit]"}, {"smiles": "O=C(/C=C/c1cccc(O)c1)c1ccc(N2CCOCC2)cc1", "Potency": "inconclusive: 18.5 µM [inhibitor, single point]"}, {"smiles": "COc1ccc2c(CC(=O)Nc3nnc(C4CC4)s3)coc2c1", "Potency": "inconclusive: 18.5 µM [inhibitor, single point]"}, {"smiles": "CN(C)CCCn1c(NC(=O)C2CCCCC2)nc2ccccc21", "Potency": "inactive"}, {"smiles": "Clc1cccc(C[n+]2cc(-c3ccccc3)n3c2CCC3)c1", "Potency": "active: 0.185 µM"}, {"smiles": "Cc1cc(=O)oc2cc(OCc3ccc(C(=O)OCC(=O)Nc4ccc(N(C)C)cc4)cc3)ccc12", "Potency": "inactive"}, {"smiles": "COc1ccc(N(CC(=O)N2CC=C(c3ccccc3)CC2)S(=O)(=O)c2c(C)noc2C)cc1", "Potency": "active: 3.7 µM"}, {"smiles": "O=S(=O)(c1ccccc1)N1CCN(Cc2cccc(Cl)c2)CC1", "Potency": "inactive"}, {"smiles": "COc1cccc(N=Cc2c(O)c3ccccc3oc2=O)c1", "Potency": "inconclusive: 18.5 µM [inhibitor, single point]"}, {"smiles": "O=[N+]([O-])c1cc(Cl)ccc1-c1nc(-c2ccccc2)no1", "Potency": "inactive"}, {"smiles": "O=C(CN1C(=O)COc2ccccc21)Nc1ccc(F)cc1", "Potency": "active: 1.47 µM"}, {"smiles": "O=C(c1cc(-c2ccc(Br)cc2)nc2ccccc12)N1CCN(c2ccccc2O)CC1", "Potency": "active: 5.86 µM"}, {"smiles": "CC(NC(=O)Nc1ccc(Cl)cc1)c1ccccc1", "note": "(centres undefined)", "Potency": "active: 10.4 µM"}, {"smiles": "COC(=O)C/C(O)=C(/N=Nc1cccc(C(F)(F)F)c1)C(=O)OC", "Potency": "inactive"}, {"smiles": "O=C(COc1ccccc1)Nc1ccc2c(c1)nc1n2CCOC1", "activity change, negative = inhibition": "inactive: 43.2% [at 5.75 µM]"}, {"smiles": "COc1ccc(Cn2c(-c3ccc(Cl)cc3)c[n+]3ccccc23)cc1", "Potency": "active: 0.117 µM"}, {"smiles": "O=C(NC(Cc1ccccc1)C(=O)O)/C(=C\\c1ccc(F)cc1)NC(=O)c1ccco1", "note": "(centres undefined)", "Potency": "inactive"}, {"smiles": "COc1ccccc1C1CCN(Cc2ccc3ccccc3c2)CC1", "Potency": "inconclusive: 18.5 µM [inhibitor, single point]"}, {"smiles": "O=C(Nc1nnc(-c2ccccc2)o1)Nc1ccccc1Cl", "Potency": "inconclusive: 0.147 µM [inhibitor, full curve, poor fit]"}, {"smiles": "CCOc1cc(Br)c(CC(=O)NC2CCCCCC2)cc1OCC", "Potency": "inconclusive: 16.5 µM [inhibitor, partial curve, poor fit]"}, {"smiles": "CCOC(=O)Cc1nn(Cc2ccccc2)c(=O)c2ccccc12", "Potency": "inactive"}, {"smiles": "Cc1cc(NC(=O)Cn2nc(C(=O)O)c3ccccc3c2=O)c([N+](=O)[O-])cc1C", "Potency": "inactive"}, {"smiles": "CCOC(=O)C1=C(COC(=O)C(CC)c2ccccc2)NC(=O)NC1C", "note": "(centres undefined)", "Potency": "inactive"}, {"smiles": "Cc1oc2c(C)c3oc(=O)c(CCC(=O)NCCCN4CCOCC4)c(C)c3cc2c1C", "Potency": "inconclusive: 0.0029 µM [inhibitor, full curve, poor fit]"}, {"smiles": "CCOc1ccc(S(=O)(=O)N2CCN(Cc3ccco3)CC2)cc1", "Potency": "inconclusive: 2.94 µM [inhibitor, single point]"}, {"smiles": "COc1cc(C(=O)NNC(=O)c2n[nH]c3ccccc23)cc(OC)c1OC", "Potency": "inconclusive: 9.28 µM [inhibitor, partial curve, poor fit]"}, {"smiles": "O=C(COc1ccc(Cl)cc1)Nc1ccccc1Cl", "Potency": "inconclusive: 18.5 µM [inhibitor, single point]"}, {"smiles": "Cc1ccccc1Nc1nc(N)nc(COC(=O)c2ccc(O)cc2)n1", "Potency": "active: 2.62 µM"}, {"smiles": "CN(Cc1nc(Cc2ccccc2F)no1)CC1(N2CCOCC2)CCCCC1", "Potency": "inconclusive: 13.1 µM [inhibitor, single point]"}, {"smiles": "CCOc1cccc(C(=O)N(Cc2ccc(F)cc2)C2CCS(=O)(=O)C2)c1", "note": "(centres undefined)", "Potency": "inconclusive: 18.5 µM [inhibitor, single point]"}, {"smiles": "Cc1ccc(CNC(=O)CC(C)S(=O)(=O)c2cc3c(cc2C)NC(=O)CO3)cc1", "note": "(centres undefined)", "Potency": "inconclusive: 18.5 µM [inhibitor, single point]"}, {"smiles": "O=C(Cn1c(COc2ccccc2)nc2ccccc21)Nc1cc(Cl)c(Cl)cc1Cl", "Potency": "inconclusive: 13.1 µM [inhibitor, single point]"}, {"smiles": "COc1cccc(C(=O)Nc2cc(NC(=O)c3cccs3)ccc2C)c1", "Potency": "inconclusive: 11.7 µM [inhibitor, single point]"}, {"smiles": "Cc1cc(Cl)ccc1NNC(=O)CCc1ccccc1", "Potency": "inconclusive: 11.7 µM [inhibitor, partial curve, poor fit]"}, {"smiles": "CCOc1ccc(CCNC(=O)c2sc3nc4n(c(=O)c3c2C)CCC4)cc1", "Potency": "inconclusive: 9.28 µM [inhibitor, partial curve]"}, {"smiles": "CCOC(=O)CCc1c(C)nc2cc(-c3ccccc3OC)[nH]n2c1=O", "Potency": "inconclusive: 18.5 µM [inhibitor, single point]"}, {"smiles": "Cc1c(Nc2cc(N3CCCC(C)C3)c3nonc3c2[N+](=O)[O-])c(=O)n(-c2ccccc2)n1C", "note": "(centres undefined)", "Potency": "inconclusive: 4.65 µM [inhibitor, partial curve]"}, {"smiles": "COc1ccc(OC)c(-c2csc(NC(=O)Cc3ccccc3)n2)c1", "Potency": "inconclusive: 18.5 µM [inhibitor, single point]"}, {"smiles": "COCCN1C=C2C(=O)C(C)(OC(=O)CCc3ccccc3)C(=O)C=C2C=C1c1ccc(C#N)cc1", "note": "(centres undefined)", "Potency": "inconclusive: 10.4 µM [inhibitor, single point]"}, {"smiles": "Cc1ccc(NC(=S)N2CCN(CCN3C(=O)c4cccc5cccc(c45)C3=O)CC2)cc1", "Potency": "inconclusive: 16.5 µM [inhibitor, single point]"}, {"smiles": "CCOc1ccccc1NC(=O)NC(=O)N(C)S(=O)(=O)c1ccc(C)cc1", "Potency": "inactive"}]}]}
